Article doi:10.1101/2020.04.03.023721
No constants are given. Whether binding was seen depends on the method and setting. In cells and extracts the contact can be indirect. Some binding calls cover weakened binding; strength is not graded here. For part of these data: Tags and fused reporters may be left off the sequences shown.

Amino acid sequences for entries named in this document (tags omitted).
UniProt O00303: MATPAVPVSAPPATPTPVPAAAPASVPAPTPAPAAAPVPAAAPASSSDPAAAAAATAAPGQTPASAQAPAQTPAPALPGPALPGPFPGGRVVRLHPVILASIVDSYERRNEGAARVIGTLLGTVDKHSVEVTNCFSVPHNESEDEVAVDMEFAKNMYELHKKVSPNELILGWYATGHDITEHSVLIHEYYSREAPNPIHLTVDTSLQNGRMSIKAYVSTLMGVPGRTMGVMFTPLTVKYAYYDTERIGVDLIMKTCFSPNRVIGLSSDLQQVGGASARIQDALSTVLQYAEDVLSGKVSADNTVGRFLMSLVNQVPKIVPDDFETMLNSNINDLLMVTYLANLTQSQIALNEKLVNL
UniProt Q96P20: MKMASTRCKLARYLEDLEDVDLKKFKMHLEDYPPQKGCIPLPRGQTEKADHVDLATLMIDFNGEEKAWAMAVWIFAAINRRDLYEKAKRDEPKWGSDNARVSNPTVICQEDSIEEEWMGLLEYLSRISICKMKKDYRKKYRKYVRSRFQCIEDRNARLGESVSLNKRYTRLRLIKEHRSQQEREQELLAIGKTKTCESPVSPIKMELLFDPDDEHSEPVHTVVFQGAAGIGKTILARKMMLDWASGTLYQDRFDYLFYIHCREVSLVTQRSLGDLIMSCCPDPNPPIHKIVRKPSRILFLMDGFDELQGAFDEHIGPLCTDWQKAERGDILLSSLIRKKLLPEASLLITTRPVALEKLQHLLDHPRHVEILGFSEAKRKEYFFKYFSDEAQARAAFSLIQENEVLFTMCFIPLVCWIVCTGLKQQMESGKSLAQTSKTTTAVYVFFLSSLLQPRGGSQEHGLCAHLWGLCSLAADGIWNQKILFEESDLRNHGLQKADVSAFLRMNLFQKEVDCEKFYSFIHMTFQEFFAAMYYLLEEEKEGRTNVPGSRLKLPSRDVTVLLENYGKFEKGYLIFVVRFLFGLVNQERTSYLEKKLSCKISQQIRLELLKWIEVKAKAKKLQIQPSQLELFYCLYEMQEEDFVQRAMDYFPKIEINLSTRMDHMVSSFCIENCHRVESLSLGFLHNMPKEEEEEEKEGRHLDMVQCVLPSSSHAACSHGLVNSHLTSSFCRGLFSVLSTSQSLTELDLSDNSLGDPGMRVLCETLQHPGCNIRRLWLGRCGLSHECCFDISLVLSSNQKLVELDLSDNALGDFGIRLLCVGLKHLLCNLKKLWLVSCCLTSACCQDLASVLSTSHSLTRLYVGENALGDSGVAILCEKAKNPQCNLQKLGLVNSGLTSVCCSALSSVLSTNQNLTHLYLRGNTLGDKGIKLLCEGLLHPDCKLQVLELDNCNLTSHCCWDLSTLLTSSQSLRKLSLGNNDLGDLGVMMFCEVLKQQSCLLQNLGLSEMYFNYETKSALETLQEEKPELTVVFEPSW
UniProt P49023: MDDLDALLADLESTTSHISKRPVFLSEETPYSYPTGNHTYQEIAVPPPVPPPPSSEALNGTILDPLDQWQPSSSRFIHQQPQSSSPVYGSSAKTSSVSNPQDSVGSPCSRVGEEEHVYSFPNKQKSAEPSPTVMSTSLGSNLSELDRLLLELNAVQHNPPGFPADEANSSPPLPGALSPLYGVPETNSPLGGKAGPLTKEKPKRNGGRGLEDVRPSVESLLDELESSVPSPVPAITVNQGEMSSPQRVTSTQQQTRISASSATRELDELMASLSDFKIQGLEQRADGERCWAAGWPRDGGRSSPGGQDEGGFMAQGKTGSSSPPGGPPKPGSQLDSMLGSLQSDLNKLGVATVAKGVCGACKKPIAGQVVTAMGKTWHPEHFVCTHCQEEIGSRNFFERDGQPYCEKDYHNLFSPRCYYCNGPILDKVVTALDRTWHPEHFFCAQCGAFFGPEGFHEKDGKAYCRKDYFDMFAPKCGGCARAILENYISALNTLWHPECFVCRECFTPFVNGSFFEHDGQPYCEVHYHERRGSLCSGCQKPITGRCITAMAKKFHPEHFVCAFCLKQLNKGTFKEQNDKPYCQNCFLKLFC

Tests used:
Test in all cases: co-IP
Flag-EIF3S5 (human) = Flag-EIF3S5 (human) (UniProt O00303)
Flag-P2X7(30-595) = molecular target: T1, Flag-P2X7(30-595) (UniProt Q99572)
T1 sequence: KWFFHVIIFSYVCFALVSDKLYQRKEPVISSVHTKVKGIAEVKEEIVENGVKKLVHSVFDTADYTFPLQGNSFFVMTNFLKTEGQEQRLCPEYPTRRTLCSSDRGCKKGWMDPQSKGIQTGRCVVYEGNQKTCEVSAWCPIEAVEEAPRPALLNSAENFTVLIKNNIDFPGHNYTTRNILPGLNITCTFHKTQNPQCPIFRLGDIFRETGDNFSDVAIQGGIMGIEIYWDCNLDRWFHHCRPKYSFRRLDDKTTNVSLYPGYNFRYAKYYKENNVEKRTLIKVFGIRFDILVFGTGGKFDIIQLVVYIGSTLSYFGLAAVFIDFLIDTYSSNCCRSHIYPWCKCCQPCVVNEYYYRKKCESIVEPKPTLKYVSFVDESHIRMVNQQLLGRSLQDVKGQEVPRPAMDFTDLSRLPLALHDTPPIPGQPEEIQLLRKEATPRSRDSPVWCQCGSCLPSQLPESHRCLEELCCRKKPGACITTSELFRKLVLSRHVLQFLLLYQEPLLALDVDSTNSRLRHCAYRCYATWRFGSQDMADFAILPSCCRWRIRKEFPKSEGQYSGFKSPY

Flag-NLRP3 (human) = Flag-NLRP3 (human) (UniProt Q96P20)

Measured: binding

HA-Paxillin (from UniProt P49023 1-591)
binds: all assays above
